Reference: the supplement of paper PMC9135407
“And” between values parts separate entries of the source, which are not always exact repeats. Equal values may be shown once. Where a name gives a salt, the structure may show the parent alone. ± gives the standard deviation of the averaged measurements. The list shows a part of the results. Baselines shift from plate to plate; read single values as rough.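 Assay uses culture-activated primary human stellate myofibroblasts; lipid droplet recovery indicates inactivation. Measured: proportion of Hoechst-counted cells over a plate-specific Bodipy cutoff, duplicate wells, DMSO and nortriptyline as per-plate negative and positive controls. A hit scores, control-normalized, above the plate's top-tenth-percentile nortriptyline wells or ranks among its three best wells. Final well concentrations not reported.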

Test system: primary human hepatic stellate cells (donor 1)
Assay: percent Bodipy-positive cells; higher = more lipid droplet accumulation
Conditions: 48 h
[1] = library stock concentration: 3.33 mM
[2] = library stock concentration: 10 mM
[3] = library stock concentration: 1 mM

Structure (SMILES): CCCCOc1cc(C(=O)OCCN(CC)CC)ccc1N [Benoxinate hydrochloride]
- percent Bodipy-positive cells: 45 ± 2.6%

Structure (SMILES): CCCCOc1cc(C(=O)OCCN(CC)CC)ccc1N [Oxybuprocaine HCl]
- percent Bodipy-positive cells [1]: 15.3 ± 1.5%
- percent Bodipy-positive cells [2]: 55.6 ± 2.2%

Structure (SMILES): O=C1O[C@H]([C@@H](O)CO)C([O-])=C1O.[Na+] [Sodium ascorbate]
- percent Bodipy-positive cells [1]: 13.3 ± 8.1%
- percent Bodipy-positive cells [2]: 36.9 ± 12%

Structure (SMILES): CCCCC[C@H](O)/C=C/[C@H]1C(=O)C=C[C@@H]1C/C=C\CCCC(=O)O [Prostaglandin J2]
- percent Bodipy-positive cells [3]: 16.9% and 17.2%

Structure (SMILES): O=C(O)CCCC=CCC1C(=O)CC(O)C1C=CC(O)CCc1ccccc1 (centres undefined) [17-phenyl trinor Prostaglandin E2]
- percent Bodipy-positive cells [3]: 13.9 ± 6.1%

Structure (SMILES): O=C(O)CCCC=CCC1C(=O)CC(O)C1C=CC(O)CCc1ccccc1 (centres undefined) [17-Phenyl-trinor-prostaglandin E2]
- percent Bodipy-positive cells [3]: 11.5 ± 12%

Structure (SMILES): CC(C)c1ccccc1S(=O)(=O)c1cc(N)c2ncccc2c1[N+](=O)[O-]
- percent Bodipy-positive cells [2]: 54.9 ± 28%

Structure (SMILES): CC(C)(C)c1cc(O)c(C(C)(C)C)cc1O [2,5-Ditertbutylhydroquinone]
- percent Bodipy-positive cells (library stock concentration: 22.5 mM): 57.1 ± 8.9%

Structure (SMILES): Cc1ccc(S(=O)(=O)Nc2nc3ccccc3nc2Nc2ccc3nsnc3c2)cc1
- percent Bodipy-positive cells (library stock concentration: 80 uM): 11.5 ± 2.8%
- percent Bodipy-positive cells (library stock concentration: 400 uM): 19.9 ± 10%
- percent Bodipy-positive cells (library stock concentration: 2 mM): 14.6 ± 1.4%
- percent Bodipy-positive cells [1]: 7.09 ± 0.38%
- percent Bodipy-positive cells [2]: 17.6% and 18.4%

Structure (SMILES): CCOC(=O)C1=C(N)Oc2ccc(Br)cc2C1C(C#N)C(=O)OCC (centres undefined)
- percent Bodipy-positive cells [1]: 35.7 ± 1.8%
- percent Bodipy-positive cells [2]: 5.9 ± 0.9%

Structure (SMILES): CCCCC(CC)COC(=O)CC(C(=O)OCC(CC)CCCC)S(=O)(=O)O (centres undefined)
- percent Bodipy-positive cells [2]: 22.3 ± 8.1%

Structure (SMILES): C[C@H]1C[C@H]2[C@@H]3CCC4=CC(=O)C=C[C@]4(C)[C@@]3(F)[C@@H](O)C[C@]2(C)[C@@]1(O)C(=O)COP(=O)(O)O
- percent Bodipy-positive cells [2]: 22.5 ± 6.5%

Structure (SMILES): CC1CCN(CC[C@H]2CCCN2S(=O)(=O)c2cccc(O)c2)CC1
- percent Bodipy-positive cells [1]: 14.9 ± 8.8%
- percent Bodipy-positive cells [2]: 25.4% and 25.1% and 13.4%

Structure (SMILES): Nc1ncnc2c1ncn2[C@@H]1O[C@H](CO)[C@@H](O)[C@@H]1O [Vidarabine]
- percent Bodipy-positive cells: 15.6 ± 6.1%
- percent Bodipy-positive cells [1]: 8.76 ± 0.11%
- percent Bodipy-positive cells (library stock concentration: 7.5 mM): 8.9% and 20.6%
- percent Bodipy-positive cells [2]: 16.8% and 23.4%

Structure (SMILES): Nc1n[nH]c(N)c1N=Nc1ccc(O)cc1 [Cdk9 Inhibitor II]
- percent Bodipy-positive cells [1]: 11.3 ± 0.89%

Structure (SMILES): CC(C)OC(=O)CCC/C=C\C[C@@H]1[C@@H](/C=C/C(=O)COc2cccc(C(F)(F)F)c2)[C@H](O)C[C@@H]1O [15-keto Fluprostenol isopropyl ester]
- percent Bodipy-positive cells [3]: 16.2 ± 5.8%

Structure (SMILES): CCOc1nc2cccc(C(=O)O)c2n1Cc1ccc(-c2ccccc2-c2nnn[nH]2)cc1 [Candesartan]
- percent Bodipy-positive cells [1]: 6.539 ± 0.0042%
- percent Bodipy-positive cells (library stock concentration: 4.5 mM): 8.02 ± 4.4%
- percent Bodipy-positive cells [2]: 17.5 ± 6.1%

Structure (SMILES): C[C@@](Cc1ccc(O)c(O)c1)(NN)C(=O)O [Carbidopa]
- percent Bodipy-positive cells [1]: 8 ± 5.7%
- percent Bodipy-positive cells (library stock concentration: 8.8 mM): 5.56% and 16.4%
- percent Bodipy-positive cells [2]: 10.1 ± 0.86%

Structure (SMILES): C[C@@](Cc1ccc(O)c(O)c1)(NN)C(=O)O
- percent Bodipy-positive cells [2]: 20 ± 2.5%

Structure (SMILES): O=C[C@@H]1CCCN1C(=O)[C@@H]1CCCN1C(=O)OCc1ccccc1 [Z-prolyl-prolinal]
- percent Bodipy-positive cells (library stock concentration: 15.1 mM): 24.9 ± 5.5%

Structure (SMILES): CCN(CC)CCCCNc1ncc2cc(-c3c(Cl)cccc3Cl)c(NC(=O)NC(C)(C)C)nc2n1
- percent Bodipy-positive cells [2]: 84.69 ± 0.52%

Structure (SMILES): C=CC(=O)Nc1cccc(Oc2nc(Nc3ccc(N4CCN(C)CC4)cc3)ncc2Cl)c1
- percent Bodipy-positive cells [1]: 60.9 ± 7.5%
- percent Bodipy-positive cells [2]: 100%

Structure (SMILES): NC[C@@H]1O[C@H](C23CC4CC(CC(C4)C2)C3)Cc2c1ccc(O)c2O
- percent Bodipy-positive cells [2]: 100%

Structure (SMILES): CC1OC2(CS1)CN1CCC2CC1 (centres undefined) [Cevimeline hydrochloride]
- percent Bodipy-positive cells [2]: 7.76 ± 1.9%

Structure (SMILES): COc1ccc(Cl)cc1NC(=O)Nc1cc(C)nc2ccccc12 [IGF-1R Inhibitor II]
- percent Bodipy-positive cells [1]: 29.3 ± 1.6%

Structure (SMILES): COc1ccc(Cl)cc1NC(=O)Nc1cc(C)nc2ccccc12
- percent Bodipy-positive cells [1]: 53.4 ± 1.8%
- percent Bodipy-positive cells [2]: 29.1 ± 0.56%

Structure (SMILES): CN(C)CCC(c1ccc(Br)cc1)c1ccccn1 (centres undefined) [Brompheniramine maleate]
- percent Bodipy-positive cells: 47.2 ± 3.1%
- percent Bodipy-positive cells [2]: 59.6 ± 4.3%

Structure (SMILES): CN(C)CCC(c1ccc(Br)cc1)c1ccccn1 (centres undefined) [Brompheniramine hydrogen maleate]
- percent Bodipy-positive cells [1]: 23.8 ± 4%
- percent Bodipy-positive cells [2]: 55.4 ± 5.3%

Structure (SMILES): CCCCn1c2ccc(O)cc2c2c3c(c(-c4ccccc4Cl)cc21)C(=O)NC3=O [Wee1 Inhibitor II]
- percent Bodipy-positive cells [1]: 2.58 ± 0.33%

Structure (SMILES): O=C(Nc1ncc(SCCN2CCCC2)s1)[C@]1(c2ccc(S(=O)(=O)C3CC3)cc2)C[C@@H]1C1CCCCC1
- percent Bodipy-positive cells [1]: 98.5 ± 1.6%

Structure (SMILES): O=C1CC[C@@H](C(=O)N2CSC[C@H]2C(=O)O)N1
- percent Bodipy-positive cells [2]: 13.4 ± 4.5%

Structure (SMILES): O=C1CC[C@@H](C(=O)N2CSC[C@H]2C(=O)O)N1 [Pidotimod]
- percent Bodipy-positive cells [1]: 4.95 ± 0.47%
- percent Bodipy-positive cells [2]: 21 ± 13%

Structure (SMILES): COc1ccccc1N1CCN(CCCNc2c(C)c(=O)n(C)c(=O)n2C)CC1 [Urapidil, 5-Methyl-]
- percent Bodipy-positive cells [2]: 27.3 ± 3%

Structure (SMILES): c1ccc(-c2ccc(C(c3ccccc3)n3ccnc3)cc2)cc1 (centres undefined) [Bifonazole]
- percent Bodipy-positive cells [1]: 9.89 ± 1.8%
- percent Bodipy-positive cells (library stock concentration: 6.4 mM): 12.5% and 28.5%
- percent Bodipy-positive cells [2]: 38.3% and 46.6%

Structure (SMILES): c1ccc(-c2ccc(C(c3ccccc3)n3ccnc3)cc2)cc1 (centres undefined)
- percent Bodipy-positive cells [2]: 26.1 ± 13%

Structure (SMILES): Oc1c(Cl)cc(Cl)c2cccnc12 [Chloroxine]
- percent Bodipy-positive cells [1]: 6.8 ± 1.6%
- percent Bodipy-positive cells (library stock concentration: 9.3 mM): 20.1 ± 4.1%
